Our source for the binding values is PMC2973830.

Protein sequences, listed by entry. Tags and fused reporters are not part of them. Lines headed by an entry give the natural chain unless they say otherwise; changes in a name come on top.
UniProt Q7RZU1: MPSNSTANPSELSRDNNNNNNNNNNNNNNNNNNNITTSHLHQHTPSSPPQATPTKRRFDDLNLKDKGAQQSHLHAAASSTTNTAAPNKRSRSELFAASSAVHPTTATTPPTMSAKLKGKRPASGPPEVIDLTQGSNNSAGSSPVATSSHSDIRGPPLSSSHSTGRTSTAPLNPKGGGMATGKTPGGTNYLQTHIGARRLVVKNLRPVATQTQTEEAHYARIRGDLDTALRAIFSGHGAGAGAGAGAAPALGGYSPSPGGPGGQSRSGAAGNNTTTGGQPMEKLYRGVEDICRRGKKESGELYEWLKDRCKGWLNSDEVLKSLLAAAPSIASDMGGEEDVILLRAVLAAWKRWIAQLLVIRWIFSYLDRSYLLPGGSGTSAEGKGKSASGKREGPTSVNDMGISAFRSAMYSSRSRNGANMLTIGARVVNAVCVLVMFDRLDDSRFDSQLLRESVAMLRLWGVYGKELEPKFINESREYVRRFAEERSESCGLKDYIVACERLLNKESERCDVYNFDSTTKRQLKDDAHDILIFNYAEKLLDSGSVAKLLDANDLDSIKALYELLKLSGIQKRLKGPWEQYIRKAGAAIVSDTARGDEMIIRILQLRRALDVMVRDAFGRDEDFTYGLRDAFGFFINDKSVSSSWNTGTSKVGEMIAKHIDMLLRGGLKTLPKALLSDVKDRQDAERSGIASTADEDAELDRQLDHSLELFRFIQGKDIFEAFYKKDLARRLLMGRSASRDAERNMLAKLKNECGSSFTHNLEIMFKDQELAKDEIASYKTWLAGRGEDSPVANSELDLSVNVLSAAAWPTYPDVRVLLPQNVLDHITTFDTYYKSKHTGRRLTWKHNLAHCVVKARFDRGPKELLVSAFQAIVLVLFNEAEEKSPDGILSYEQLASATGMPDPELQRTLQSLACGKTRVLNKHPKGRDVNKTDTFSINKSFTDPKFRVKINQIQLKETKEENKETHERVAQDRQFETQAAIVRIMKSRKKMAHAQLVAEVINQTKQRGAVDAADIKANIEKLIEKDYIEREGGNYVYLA
UniProt Q7RVK6: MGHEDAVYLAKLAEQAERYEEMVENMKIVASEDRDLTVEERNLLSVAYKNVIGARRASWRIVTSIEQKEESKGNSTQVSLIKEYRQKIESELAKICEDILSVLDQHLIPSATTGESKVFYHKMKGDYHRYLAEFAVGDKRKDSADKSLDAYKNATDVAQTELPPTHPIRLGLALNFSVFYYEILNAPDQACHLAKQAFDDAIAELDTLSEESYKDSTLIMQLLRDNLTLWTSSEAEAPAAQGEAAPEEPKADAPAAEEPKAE

Like-named read-outs stand apart in the source and are kept apart here. These are yes or no findings as the source states them, for the method shown. In cells and extracts the contact can be indirect. These calls come from enrichment with a bait or labelling near it, and not all partners need be listed. For some of these results: No binding means not detected with the bait. For some of these results: Where a sequence is shown, tags or fusion partners need not be part of it.

Common to all, as to assay: affinity purification with mass spectrometry; HAT-FLAG tandem-affinity-tagged bait (DIM-5 or CUL4) purified in two steps from a Neurospora strain; SDS-PAGE, gel slices digested with trypsin, nano-HPLC and ion trap MS/MS, Mascot search of UniProt
Assay [1] deals with T1, DIM-5 fused to a HAT-FLAG tandem affinity tag (N. crassa) (UniProt Q8X225).
T1 sequence: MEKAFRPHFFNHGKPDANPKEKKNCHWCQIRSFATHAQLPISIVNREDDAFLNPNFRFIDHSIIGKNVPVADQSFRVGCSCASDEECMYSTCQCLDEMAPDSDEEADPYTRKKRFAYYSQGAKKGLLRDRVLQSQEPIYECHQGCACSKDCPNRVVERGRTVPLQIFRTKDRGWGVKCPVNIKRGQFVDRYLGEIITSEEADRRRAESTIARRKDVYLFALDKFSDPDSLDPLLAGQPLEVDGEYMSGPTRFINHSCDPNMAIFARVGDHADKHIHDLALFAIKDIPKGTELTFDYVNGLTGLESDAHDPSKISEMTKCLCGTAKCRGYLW

Assay [2] has as its target CUL4 fused to a tandem HAT-FLAG affinity tag (N. crassa) (UniProt Q7RZU1).
The target is the same in assay [3]. This is another data set of the same source.

As for “NFH-2 (Neurospora fourteen-three-three homolog-2) (from UniProt Q7RVK6 1-262)”, the binding result in assay [1] is listed as “binds”; in assay [2] it was “no binding”.

B1: DIM-5 (enzyme, UniProt Q8X225 1-331)
chain: MEKAFRPHFFNHGKPDANPKEKKNCHWCQIRSFATHAQLPISIVNREDDAFLNPNFRFIDHSIIGKNVPVADQSFRVGCSCASDEECMYSTCQCLDEMAPDSDEEADPYTRKKRFAYYSQGAKKGLLRDRVLQSQEPIYECHQGCACSKDCPNRVVERGRTVPLQIFRTKDRGWGVKCPVNIKRGQFVDRYLGEIITSEEADRRRAESTIARRKDVYLFALDKFSDPDSLDPLLAGQPLEVDGEYMSGPTRFINHSCDPNMAIFARVGDHADKHIHDLALFAIKDIPKGTELTFDYVNGLTGLESDAHDPSKISEMTKCLCGTAKCRGYLW
For B1, the binding entry in assay [3] was “no binding”.

B2: DIM-7 (protein, UniProt Q1K7K7 1-666)
chain: MAGPGRPRRRRGSSASIDSTDDRRRRWTRELAILKPVTPGTSDDLWPYFAVLTDATIYQKDGKTLANPLHVDLEGPFIVRGKLEPVEDGDDEARECFHKPYNKATYIEISRSERYSIGYEPNTLWVSGASGWFEIIPSRKYETMYNEVMEAITLYYGIMGPYEEHKRLLKKADKKKRKDVKPPSLDEIFFSYALTAGDGAVTVKEEVEARCLKWAQFLLAHFPKESEIRWQDTGFAAWLQSARPDLQKKISDVAAGLLTKPAAEPEGLLARDDHSPQPQSLAIREPPKGGRTTRTSRQASELSDQRSDKGKGIARDSPVETPIPAPVSNRHLSSSSPRPRASPAVITGSDDLPDDPVDRLIVLLGEVAQRIDIKTVKMSKINSDLFYNCRIKYYNAARELCEHFAKDLLERLPPMWDNTPYRAWLEDVVENGRPAPVEFVVEDIPQYLTRRTRRQTHISRLSSALGPTPSVEAESKDEVRAGKQPRVGRPSGKVATLRVAGSKRLASDMIDEDELPPRRGRKALKRTVRVEEDEDSDANSVIIDMTDNTGVIPKDAVRIVVQAERLPTMSPAGPNGTWTCDQEGCNYVVRSADEPEGQDLISKHFKDHEEQAQKINLAMEESKAGHLPINHLLDKIQAMGKNALAKKRGSLNGEPLPLPIKRRLLI
B2: the binding result in assay [3] is recorded as “binds”.
